Source: publication doi:10.1101/2020.06.18.159665
Results are given in words; binding and its absence hold for the method and conditions named.

Chains of the proteins cited; added tags and fusions are not shown. Lines headed by an entry give the natural chain unless they say otherwise; changes in a name come on top.
UniProt P49841: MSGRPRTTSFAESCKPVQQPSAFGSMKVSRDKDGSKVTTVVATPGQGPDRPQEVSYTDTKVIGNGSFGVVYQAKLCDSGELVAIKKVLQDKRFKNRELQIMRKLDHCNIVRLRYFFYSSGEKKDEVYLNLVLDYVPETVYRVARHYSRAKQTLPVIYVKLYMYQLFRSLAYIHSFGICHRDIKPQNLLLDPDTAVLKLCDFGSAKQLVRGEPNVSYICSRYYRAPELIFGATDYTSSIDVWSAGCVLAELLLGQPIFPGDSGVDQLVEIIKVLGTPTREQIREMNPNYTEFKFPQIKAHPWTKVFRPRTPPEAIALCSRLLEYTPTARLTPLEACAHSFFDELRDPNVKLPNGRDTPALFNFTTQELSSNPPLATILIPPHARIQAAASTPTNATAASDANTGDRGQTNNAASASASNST

Molecular target: GSK3β-hDISCtide complex (human) (UniProt P49841+Q9NRI5)
Assay: SPR

B1: hDISCtide, 44-mer peptide derived from human DISC1 (residues 193-236) (peptide, UniProt Q9NRI5 193-236)
peptide: PEVPPTPPGSHSAFTSSFSFIRLSLGSAGERGEAEGCPPSREAE
binding: no binding (tested: 4 μM)
